# In PubChem BioAssay AID493014 (National Center for Advancing Translational Sciences (NCATS), 2011):
# Some of the results follow. Further columns of the screen follow, without active or inactive calls. Compounds called inactive in the main read-out are mostly missing here. The note in brackets gives the kind of curve behind each potency; many fits are weak.
# Experiment: qHTS Assay to Find Inhibitors of Chronic Active B-Cell Receptor Signaling
# Settings: ABC-DLBCL IkBa-CBG/CBR reporter, luminescence ratio (green luciferase fused to IkBa over red control in TMD8 lymphoma cells), 4 h
# Summary of the method: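 Cell line TMD8 (human ABC DLBCL), stably expressing tet-inducible CBG68-IkBa fusion and CBR; IMDM/0.5% FBS; cpd up to 46 uM; dox induction, 4 h, 37C/5% CO2; dual luminescence; green/red ratio; MG132 control.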
# [1] = measured here: CBR red luminescence, cell number
# [2] = measured here: IkBa-CBG green luminescence
Structure (SMILES),AC50 [1],AC50 [2]
CN(C)c1ccc(NC(=O)c2sc(SCC(=O)Nc3nccs3)nc2N)cc1,"5.8 µM [falling, partial curve, poor fit]",
CC(C)(Oc1ccc(Cl)cc1)C(=O)NC1=NN(c2ccccc2)C(=O)C1,"32.6 µM [falling, single point]","23.1 µM [rising, partial curve, poor fit]"
CC(=O)c1c(C)oc2ccc(NS(=O)(=O)c3ccc(F)cc3C)cc12,"35.5 µM [falling, single point]",
CCOc1ccc2c(c1)S/C(=C\c1cccs1)C(=O)N2,"7.08 µM [rising, partial curve, poor fit]",
O=C(CSCc1ccccc1Cl)N1CCN(c2ccc(F)cc2)CC1,"0.0891 µM [rising, full curve, poor fit]",
CC(=O)c1cccc(NC(=O)Nc2c(C)nn(C)c2C)c1,"32.6 µM [falling, single point]",
Cc1cccc(CSc2ncnc3c2cnn3Cc2ccccc2)c1,"14.6 µM [rising, single point]",
O=C(NCC1CCCN1S(=O)(=O)c1ccccc1)C(=O)NC1CC1 (configuration not stated),"25.9 µM [rising, single point]",
CCn1c(=NC(=O)c2cccc(N3C(=O)CCC3=O)c2)sc2c(OC)ccc(OC)c21,"11.2 µM [falling, single point]",
O=C(Nc1cc(Br)ccc1O)C1CC(c2c(F)cccc2Cl)=NO1 (configuration not stated),,"0.501 µM [rising, full curve, poor fit]"
Cc1cc(C)c(S(=O)(=O)N2CCN(C(=O)c3c(C)noc3C)CC2)c(C)c1,"6.51 µM [rising, single point]",
C/C(=N/NC(=O)c1ccc(NC(=O)c2ccc(F)cc2)cc1)c1ccccc1,"17.8 µM [falling, single point]",
COCCCNC(=O)CN1C(=O)/C(=C\c2ccc(C)cc2)Sc2ccccc21,"18.4 µM [rising, partial curve, poor fit]",
COc1ccc(N=C2NC(=O)/C(=C/c3ccco3)S2)cc1,"35.5 µM [falling, partial curve, poor fit]",
CCCC(=O)Nc1ccc(N2CCCCC2)cc1,"32.6 µM [falling, single point]",
COc1ccc(-c2cc3cc(F)ccc3cn2)cc1,"0.082 µM [rising, full curve]",
c1ccc(-c2ccc(-n3ccnc3)cc2)cc1,"0.251 µM [rising, full curve, poor fit]",
CCN(CC)S(=O)(=O)c1ccc2oc(C(=O)NCC3COc4ccccc4O3)c(C)c2c1 (configuration not stated),"6.51 µM [falling, single point]",
CCOC(=O)c1cnc2ccc(C)cc2c1Sc1ccc(F)cc1,"22.4 µM [falling, single point]",
COc1ccc(C2=C(C=Nc3c(C)n(C)n(-c4ccccc4)c3=O)C(c3ccccc3C)c3ccccc3O2)cc1OC (configuration not stated),"0.731 µM [rising, full curve, poor fit]",
O=C(c1cc(-c2ccccc2)on1)N1CCCc2ccccc21,"3.98 µM [rising, partial curve]",

# Gathered by group, those above containing nitrogen in an aromatic ring (10)
Structure (SMILES),AC50 [1],AC50 [2]
CN(C)c1ccc(NC(=O)c2sc(SCC(=O)Nc3nccs3)nc2N)cc1,"5.8 µM [falling, partial curve, poor fit]",
CC(=O)c1cccc(NC(=O)Nc2c(C)nn(C)c2C)c1,"32.6 µM [falling, single point]",
Cc1cccc(CSc2ncnc3c2cnn3Cc2ccccc2)c1,"14.6 µM [rising, single point]",
CCn1c(=NC(=O)c2cccc(N3C(=O)CCC3=O)c2)sc2c(OC)ccc(OC)c21,"11.2 µM [falling, single point]",
Cc1cc(C)c(S(=O)(=O)N2CCN(C(=O)c3c(C)noc3C)CC2)c(C)c1,"6.51 µM [rising, single point]",
COc1ccc(-c2cc3cc(F)ccc3cn2)cc1,"0.082 µM [rising, full curve]",
c1ccc(-c2ccc(-n3ccnc3)cc2)cc1,"0.251 µM [rising, full curve, poor fit]",
CCOC(=O)c1cnc2ccc(C)cc2c1Sc1ccc(F)cc1,"22.4 µM [falling, single point]",
COc1ccc(C2=C(C=Nc3c(C)n(C)n(-c4ccccc4)c3=O)C(c3ccccc3C)c3ccccc3O2)cc1OC (configuration not stated),"0.731 µM [rising, full curve, poor fit]",
O=C(c1cc(-c2ccccc2)on1)N1CCCc2ccccc21,"3.98 µM [rising, partial curve]",

# The results go on:

Structure (SMILES),AC50 [1],AC50 [2]
Cc1ccc(C(=O)NC(C)CCc2ccccc2)cc1S(=O)(=O)N1CCOCC1 (configuration not stated),"0.58 µM [rising, full curve, poor fit]",
O=C(COC(=O)CCN=C1NS(=O)(=O)c2ccccc21)NNC(=O)c1ccccc1,"29.1 µM [falling, single point]",
Cc1ccc(Nc2nc(-c3sc(NC(=O)c4ccco4)nc3C)cs2)cc1,"18.4 µM [falling, single point]",
O=C(c1ccco1)N1CCN(Cc2nc3ccc([N+](=O)[O-])cc3c(=O)n2-c2ccccc2F)CC1,"14.6 µM [rising, partial curve, poor fit]",
CC(C)(C)C1CCC(=NNc2nc3ccccc3[nH]2)CC1 (configuration not stated),"22.4 µM [falling, single point]",
CCc1ccccc1N=C1S/C(=C/c2ccccc2OCC(=O)N2CCOCC2)C(=O)N1C,"7.31 µM [falling, partial curve, poor fit]",
Cc1cc2nnc(SCC(=O)N3CCCCC3)n2c(N)n1,,"8.91 µM [rising, partial curve, poor fit]"
CCOC(=O)c1sc(NC(=O)Nc2ccc(Cl)cc2)nc1C,"3.55 µM [rising, single point]",
O=C(NNC(=O)c1ccccc1OCc1ccccc1)c1ccccc1F,"12.6 µM [falling, single point]",
C=CCNC(=O)c1cccc2c1C(=O)c1ccc(N3CCOCC3)cc1S2(=O)=O,"20.6 µM [falling, single point]",
Cc1ccccc1S(=O)(=O)Cc1ccc(C(=O)NCCN2CCCCC2C)o1 (configuration not stated),"9.2 µM [falling, partial curve]",
CCCCCCC(=O)N(O)C1CC(=O)N(c2ccc(F)cc2)C1=O (configuration not stated),"0.282 µM [falling, full curve, poor fit]",
CC(/C=C1\SC(=S)N(CC(=O)N2CCN(c3ccccc3)CC2)C1=O)=C\c1ccccc1,"0.92 µM [rising, full curve, poor fit]",
O=C(CCCCn1c(=O)c2ccccc2n(Cc2ccc(Cl)cc2)c1=O)NCc1ccco1,"4.11 µM [falling, single point]",
Cn1c2c(c(=O)n(C)c1=O)C(C(F)(F)F)(C(F)(F)F)N=C(c1ccc(Cl)cc1)N2,"3.16 µM [falling, single point]",
O=C(/C(=N/N=C/c1ccc(O)c(O)c1)c1ccccc1)c1ccccc1,"10.3 µM [falling, partial curve]",
Cc1cccc(NC(=O)c2cc(NC(=O)c3ccccc3)ccc2N2CCCCC2)c1,"0.082 µM [falling, full curve, poor fit]",
CCOC(=O)C1=CN(Cc2cccc(-c3cccnc3)c2)S(=O)(=O)N(C)C1C (configuration not stated),"25.9 µM [falling, single point]","29.1 µM [rising, single point]"
O=C(O)c1ccc(NC(=S)Nc2ccccc2)cc1,"25.9 µM [falling, single point]",
Cc1ccc(OCCNC(=O)c2ccc(NC(=O)CC3SC(N4CCCC4)=NC3=O)cc2)cc1 (configuration not stated),"29.1 µM [falling, single point]",
CCOc1ccccc1N1CCN(C(=O)c2ccc3[nH]c(C)c(C)c3c2)CC1,"0.0891 µM [falling, full curve, poor fit]",

Structure (SMILES),AC50 [1],AC50 [2]
Cc1ccccc1Nc1nc(N)nc(CSCc2c(C)noc2C)n1,"2.59 µM [rising, partial curve, poor fit]",
Nc1nnc(SCCOc2ccc(Br)cc2)s1,"0.58 µM [rising, partial curve, poor fit]",
CCOC(=O)C1=C(CSc2nccn2C)NC(=O)NC1c1ccc(OC)cc1 (configuration not stated),"1.64 µM [rising, partial curve, poor fit]",
O=C(/C=C/c1ccc(O)cc1)c1ccc(O)cc1O,"1.16 µM [falling, full curve]","7.31 µM [falling, partial curve]"
Cc1ccc(/C=N/NC(=O)c2cccs2)o1,"9.2 µM [falling, partial curve]",
Cc1nnc(SCc2ccccc2Cl)n(N)c1=O,"0.794 µM [falling, full curve, poor fit]",
CCOCCCNC(=O)C1(O)c2cc(Br)ccc2NC(=O)N1c1cccc(OC)c1 (configuration not stated),"20 µM [rising, partial curve, poor fit]",
Cc1ccnc2nc(C(=O)Nc3nc4ccccc4s3)nn12,"6.31 µM [falling, full curve, poor fit]",
Cc1nn(-c2ccccc2)nc1C(=O)Nc1ccc2c(c1)OCCO2,"15.8 µM [falling, single point]",
O=c1ccc(NS(=O)(=O)c2ccc(Cl)cc2)cn1Cc1ccc(Cl)c(Cl)c1,"22.4 µM [falling, single point]",
COC(=O)CC(c1ccccc1F)N1Cc2ccccc2C1=O (configuration not stated),"0.0891 µM [rising, full curve, poor fit]",
Cc1cccc(CCNC(=O)C2CCN(S(=O)(=O)c3cccc4cccnc34)CC2)c1,"35.5 µM [rising, single point]",
CN(C(=O)c1ccc(Br)o1)C1CCCCC1,"7.94 µM [rising, partial curve, poor fit]",
CCC(=O)N1CC2(CC(c3cccc(NC(=O)CC(c4ccccc4)c4ccccc4)c3)=NO2)C[C@H]1C(N)=O (some centres not stated),"8.91 µM [falling, partial curve, poor fit]",
COc1cccc(Oc2ccc(N)cn2)c1,"32.6 µM [rising, single point]",
CCOC(=O)c1cc(CC)sc1NC(=O)c1cccc(N2C(=O)CCC2=O)c1,"18.4 µM [falling, single point]",
COc1cc2c(cc1OC)CN(C(=O)C1(c3ccccc3)CC1)CC2,"35.5 µM [rising, single point]",
O=C(NCc1cccs1)C1CCN(c2ccc(S(=O)(=O)N3CCOCC3)cc2Cl)CC1,"10 µM [rising, partial curve, poor fit]","20 µM [falling, single point]"
CC(C)[C@H](NC(=O)c1ccccc1F)C(=O)OCC(=O)NC(=O)NC1CCCCC1,"20.6 µM [falling, single point]","5.8 µM [rising, partial curve, poor fit]"
CCOc1cccc(C(=O)N/N=C/c2coc3ccccc3c2=O)c1,"1.26 µM [falling, partial curve, poor fit]",

# An excerpt of these results, with tabs.
Structure (SMILES)	AC50 [1]	AC50 [2]
Cc1ccccc1S(=O)(=O)Cc1ccc(C(=O)NCCN2CCCCC2C)o1 (configuration not stated)	9.2 µM [falling, partial curve]	
Cc1ccccc1Nc1nc(N)nc(CSCc2c(C)noc2C)n1	2.59 µM [rising, partial curve, poor fit]	
